According to publication PMC11786349:
These are yes or no findings as the source states them, for the method shown. In cells and extracts the contact can be indirect. These calls come from enrichment with a bait or labelling near it, and not all partners need be listed.

Target: TRPV1 immunoprecipitated for mass spectrometry (UniProt O35433)
Test: affinity purification with mass spectrometry; immunoprecipitation of TRPV1, Coomassie-stained gel band excised, Q Exactive Plus mass spectrometer; cells not given

## CDK5 found by mass spectrometry in the TRPV1 immunoprecipitate (from UniProt Q03114 1-292) (enzyme)
  binding: binds
